In PubChem BioAssay AID2417 (National Center for Advancing Translational Sciences (NCATS), 2010):
Screen size: about 140,000 compounds; about 4,300 (3.1%) were called active. Inconclusive means that the source gave no clear call. Such entries were picked first, then a sample of the others.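 How the source made its calls: active means readout at or below -70, meaning at least 70% loss of cells showing the perinucleolar compartment, a nuclear body marking cancer cells; inconclusive means readout between -30 and a set limit; inactive means the rest.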

Test: High Content Assay for Compounds that inhibit the Assembly of the Perinucleolar Compartment;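 further: plate controls were DMSO wells for no effect and camptothecin positive control wells for full effect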
Conditions: PC3M PTB-GFP, PNC prevalence imaging, 16 h; at 10 µM; stronger effect = lower value
In short: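 PC3M cells stably expressing PTB-GFP, 750–1000 cells/well, treated 16 h at 37 °C with compound (23 nl of library stock), in duplicate. After paraformaldehyde fixation and Hoechst stain, imaged at 20x; PNC prevalence scored by image analysis.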

SMILES | activity change (PNC), negative = inhibition
O=c1c2c3c(sc2n(CCN2CCOCC2)c(=O)n1Cc1ccco1)CCCCC3 | inactive: -28%
O=C(NCC1CCCCN1)c1cc(OCC(F)(F)F)ccc1OCC(F)(F)F (centres undefined) | inconclusive: -46%
COc1ccc(CCNC(=O)CSc2nnc(CNC(=O)c3ccco3)o2)cc1OC | inconclusive: -35.7%
Cc1cc(C)nc(Nc2nc3ccccc3[nH]2)n1 | inconclusive: -60.2%
O=C(c1cccc(S(=O)(=O)N2CCc3ccccc3C2)c1)N1CCN(c2ccc(O)cc2)CC1 | inactive: -20%
Cn1ccnc1SCC(=O)Nc1cccc2ccccc12 | inconclusive: -39.7%
COCCn1c(SCC(=O)Nc2nc(C)c(Cl)cc2Cl)nc2ccccc21 | inactive: -23.7%
CCCC(=O)NNC(=O)c1ccoc1C | inactive: -17.7%
O=C(/C=C\Nc1ccc(Br)cc1)c1cccnc1 | inconclusive: -53%
c1ccc(CN2CCC3(CC2)Nc2ccccc2CO3)cc1 | inconclusive: -71.3%
COc1ccc(-n2c(=O)[nH]cc(C(=O)N3CCCc4ccccc43)c2=O)cc1 | inconclusive: -41.2%
O=C(CN1C(=O)COc2ccccc21)Nc1ccc2c(c1)OCCO2 | inconclusive: -46.1%
N#Cc1ccc(CSc2nnc(COc3ccccc3)n2-c2ccccc2)cc1 | inconclusive: -55.3%
Cc1nnc(NC(=O)C(C)Oc2ccc3c(C)cc(=O)oc3c2)s1 (centres undefined) | active: -107%
O=c1n(-c2ccccc2)c(=O)n2n1CCCC2 | active: -120%
Cc1ccc(C(=O)/C=C/Nc2cccc(O)c2)cc1 | inconclusive: -54.3%
CCOC(=O)c1ccc(-c2ccc(/C=C(\C#N)C(=O)NCc3cccs3)o2)cc1 | inconclusive: -42.9%
Cc1cc(N2C(=O)CCC2=O)ccc1NC(=O)c1cccs1 | inconclusive: -48.2%
O=C(N/N=C/c1cccnc1)c1ccc([N+](=O)[O-])cc1 | inactive: -28.6%
COc1ccc(NC(=O)CCCn2c(=O)c3sccc3n(Cc3ccccc3C)c2=O)cc1 | inactive: -5.62%

SMILES | activity change (PNC), negative = inhibition
COc1ccc(CCNc2ccncn2)cc1OC | inconclusive: -31%
c1ccc(CN2CCN(c3ncccn3)CC2)nc1 | inconclusive: -44%
CC(=O)c1c[nH]c2ccc(C)cc2c1=O | active: -86.7%
CCOC(=O)c1cc2nc(-c3ccco3)cc(C(F)(F)F)n2n1 | inactive: 2.48%
Cc1nnc(SCC(=O)Nc2sc3c(c2C(=O)c2ccccc2)CCCC3)s1 | inconclusive: -40.6%
COc1cccc2c1OC1(C)CC2NC(=O)N1Cc1ccccc1 (centres undefined) | inconclusive: -47.3%
O=C(NC(Cc1ccccc1)C(=O)O)/C(=C/c1ccccc1)NC(=O)c1ccccc1 (centres undefined) | inconclusive: -71.8%
Cc1c(-c2cccs2)[n+](=O)c2c(n1[O-])CCCC2 | active: -100%
CCOC(=O)c1[nH]c2ccc(OC)cc2c1NC(=O)CCN1CCN(Cc2ccccc2)CC1 | inconclusive: -63.8%
Cn1c(=S)[nH]c2ccccc21 | inactive: 27.6%
O=C1CCN(N=Nc2cccc(Cl)c2)N1 | inactive: -22.7%
CCCOc1ccc2nc(NC(=O)OC)[nH]c2c1 | inconclusive: -44.5%
COc1ccc(/C=C2\N=C(SC)SC2=O)cc1OC | inconclusive: -31.4%
N#C/C(=C\C1=C(N2CCOCC2)C(=C/c2cccc([N+](=O)[O-])c2)/CC1)C(=O)Nc1ccccc1F | inconclusive: -34%
COC(=O)c1ccc(COc2ccc3c(C)c(C)c(=O)oc3c2)o1 | inconclusive: -37.4%
CCCOc1ccc(-c2nc(C#N)c(NCCCn3ccnc3)o2)cc1 | inconclusive: -38.3%
CCn1c2ccccc2c2nnc(SCC(=O)c3ccccc3)nc21 | inconclusive: -37.8%
CN1CCN(C(=S)NCCc2ccccc2)CC1 | active: -81.6%
Cc1ccc(NCC(=O)N/N=C\C(Br)=C\c2ccccc2)cc1 | inconclusive: -36.8%
Cc1[nH]nc2c1C1(CCOCC1)C(C#N)=C(N)O2 | inconclusive: -38.5%

By substructure: the compounds so far with a Cl atom.
SMILES | activity change (PNC), negative = inhibition
COCCn1c(SCC(=O)Nc2nc(C)c(Cl)cc2Cl)nc2ccccc21 | inactive: -23.7%
O=C1CCN(N=Nc2cccc(Cl)c2)N1 | inactive: -22.7%

Further compounds

SMILES | activity change (PNC), negative = inhibition
CCCNC(=O)CN(c1ccc(F)c(Cl)c1)S(C)(=O)=O | inconclusive: -61.1%
CCn1c(N)c(C(=O)NCc2ccc3c(c2)OCO3)sc1=S | inconclusive: -30.8%
O=C(NCc1cccs1)c1cc(S(=O)(=O)N2CCCCC2)ccc1Cl | inconclusive: -39.3%
Cc1cc(/C=C2/C(=O)NN(c3ccccc3)C2=O)c(C)n1-c1ccc(O)cc1 | inactive: 91.3%
COC(=O)CNC(=O)CN1C(=O)N(c2ccc(Cl)cc2)C(N(O)C(=O)Nc2ccc(Cl)cc2)C1(C)C (centres undefined) | inactive: -27.3%
CC(C)(C)C(=O)Cn1c(=O)n(CC2CCCO2)c(=O)c2ccccc21 (centres undefined) | inconclusive: -66.7%
COc1ccc(N(CC(=O)NCCSC(C)(C)C)S(C)(=O)=O)c(OC)c1 | inconclusive: -43.1%
Cn1c(=O)c2c(nc(NCc3ccccc3)n2C)n(C)c1=O | inconclusive: -44.4%
CC(=O)c1ccc(NS(=O)(=O)c2ccc(CC(C)C)cc2)cc1 | inconclusive: -76.3%
Cc1nnc(SCC(=O)Nc2sccc2C(N)=O)n1Cc1ccccc1 | inconclusive: -42.6%
O=C1N/C(=N\N=C\c2cccs2)SC1Cc1ccc(Cl)cc1Cl (centres undefined) | inconclusive: -32.2%
CC(=O)c1c(C)[nH]c(C(=O)N2CCc3ccccc3C2)c1C | inactive: 84.1%
Cc1cc2cc(CNC(=O)NC3CCCCC3)ccc2[nH]1 | inactive: 51.1%
COc1ccc(NC(=O)Cn2nnc(C(=O)NCc3ccccc3)c2N)cc1Cl | inconclusive: -77%
O=C(Nc1ccc2c(c1)CCC2)c1cc(S(=O)(=O)N2CCN(c3ccccc3)CC2)ccc1Cl | inconclusive: -54.4%
O=C(/C=C/c1cccc(Cl)c1)Nn1c(-c2cccs2)nc2ccccc2c1=O | inactive: -5.59%
CN(C)/N=C/C=C1\CC/C(=C\c2ccc(Br)cc2)C1=O | inactive: 20%
CCOC(=O)c1c(NC(=O)COc2cccc3c2CCN(C)C3=O)sc2c1CCC2 | inconclusive: -69.7%
CCOc1ccc2nc(SCC(=O)c3cccs3)sc2c1 | inconclusive: -33.7%
